No constants are given. Whether binding was seen depends on the method and setting. Binding seen in cells or lysates may run through a third protein. A yes stands for co-enrichment or nearness to the bait. Other partners may have been found. Where a sequence is shown, tags or fusion partners need not be part of it.
Legend:
[1] = biological target: T1, FLAG-tagged full-length NORE1A (UniProt Q8WWW0); experiment: affinity purification with mass spectrometry; FLAG-tagged full-length NORE1A or effector domain expressed in HEK293 cells; NORE1A-bound proteins examined by mass spectrometry
T1 sequence: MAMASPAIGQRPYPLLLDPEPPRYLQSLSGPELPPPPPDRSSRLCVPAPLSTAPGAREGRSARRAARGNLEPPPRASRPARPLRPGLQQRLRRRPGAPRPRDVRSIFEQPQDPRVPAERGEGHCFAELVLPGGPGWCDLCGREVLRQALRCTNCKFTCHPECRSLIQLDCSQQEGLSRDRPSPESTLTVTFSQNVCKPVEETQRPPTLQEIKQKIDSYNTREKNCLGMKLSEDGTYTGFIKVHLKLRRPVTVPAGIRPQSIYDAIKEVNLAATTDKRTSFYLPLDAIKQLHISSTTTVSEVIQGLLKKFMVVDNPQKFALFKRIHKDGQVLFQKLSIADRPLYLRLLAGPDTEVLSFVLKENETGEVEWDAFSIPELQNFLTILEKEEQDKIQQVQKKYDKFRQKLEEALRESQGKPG

Protein sequences, listed by entry. Tags and fused reporters are not part of them.
UniProt P46821: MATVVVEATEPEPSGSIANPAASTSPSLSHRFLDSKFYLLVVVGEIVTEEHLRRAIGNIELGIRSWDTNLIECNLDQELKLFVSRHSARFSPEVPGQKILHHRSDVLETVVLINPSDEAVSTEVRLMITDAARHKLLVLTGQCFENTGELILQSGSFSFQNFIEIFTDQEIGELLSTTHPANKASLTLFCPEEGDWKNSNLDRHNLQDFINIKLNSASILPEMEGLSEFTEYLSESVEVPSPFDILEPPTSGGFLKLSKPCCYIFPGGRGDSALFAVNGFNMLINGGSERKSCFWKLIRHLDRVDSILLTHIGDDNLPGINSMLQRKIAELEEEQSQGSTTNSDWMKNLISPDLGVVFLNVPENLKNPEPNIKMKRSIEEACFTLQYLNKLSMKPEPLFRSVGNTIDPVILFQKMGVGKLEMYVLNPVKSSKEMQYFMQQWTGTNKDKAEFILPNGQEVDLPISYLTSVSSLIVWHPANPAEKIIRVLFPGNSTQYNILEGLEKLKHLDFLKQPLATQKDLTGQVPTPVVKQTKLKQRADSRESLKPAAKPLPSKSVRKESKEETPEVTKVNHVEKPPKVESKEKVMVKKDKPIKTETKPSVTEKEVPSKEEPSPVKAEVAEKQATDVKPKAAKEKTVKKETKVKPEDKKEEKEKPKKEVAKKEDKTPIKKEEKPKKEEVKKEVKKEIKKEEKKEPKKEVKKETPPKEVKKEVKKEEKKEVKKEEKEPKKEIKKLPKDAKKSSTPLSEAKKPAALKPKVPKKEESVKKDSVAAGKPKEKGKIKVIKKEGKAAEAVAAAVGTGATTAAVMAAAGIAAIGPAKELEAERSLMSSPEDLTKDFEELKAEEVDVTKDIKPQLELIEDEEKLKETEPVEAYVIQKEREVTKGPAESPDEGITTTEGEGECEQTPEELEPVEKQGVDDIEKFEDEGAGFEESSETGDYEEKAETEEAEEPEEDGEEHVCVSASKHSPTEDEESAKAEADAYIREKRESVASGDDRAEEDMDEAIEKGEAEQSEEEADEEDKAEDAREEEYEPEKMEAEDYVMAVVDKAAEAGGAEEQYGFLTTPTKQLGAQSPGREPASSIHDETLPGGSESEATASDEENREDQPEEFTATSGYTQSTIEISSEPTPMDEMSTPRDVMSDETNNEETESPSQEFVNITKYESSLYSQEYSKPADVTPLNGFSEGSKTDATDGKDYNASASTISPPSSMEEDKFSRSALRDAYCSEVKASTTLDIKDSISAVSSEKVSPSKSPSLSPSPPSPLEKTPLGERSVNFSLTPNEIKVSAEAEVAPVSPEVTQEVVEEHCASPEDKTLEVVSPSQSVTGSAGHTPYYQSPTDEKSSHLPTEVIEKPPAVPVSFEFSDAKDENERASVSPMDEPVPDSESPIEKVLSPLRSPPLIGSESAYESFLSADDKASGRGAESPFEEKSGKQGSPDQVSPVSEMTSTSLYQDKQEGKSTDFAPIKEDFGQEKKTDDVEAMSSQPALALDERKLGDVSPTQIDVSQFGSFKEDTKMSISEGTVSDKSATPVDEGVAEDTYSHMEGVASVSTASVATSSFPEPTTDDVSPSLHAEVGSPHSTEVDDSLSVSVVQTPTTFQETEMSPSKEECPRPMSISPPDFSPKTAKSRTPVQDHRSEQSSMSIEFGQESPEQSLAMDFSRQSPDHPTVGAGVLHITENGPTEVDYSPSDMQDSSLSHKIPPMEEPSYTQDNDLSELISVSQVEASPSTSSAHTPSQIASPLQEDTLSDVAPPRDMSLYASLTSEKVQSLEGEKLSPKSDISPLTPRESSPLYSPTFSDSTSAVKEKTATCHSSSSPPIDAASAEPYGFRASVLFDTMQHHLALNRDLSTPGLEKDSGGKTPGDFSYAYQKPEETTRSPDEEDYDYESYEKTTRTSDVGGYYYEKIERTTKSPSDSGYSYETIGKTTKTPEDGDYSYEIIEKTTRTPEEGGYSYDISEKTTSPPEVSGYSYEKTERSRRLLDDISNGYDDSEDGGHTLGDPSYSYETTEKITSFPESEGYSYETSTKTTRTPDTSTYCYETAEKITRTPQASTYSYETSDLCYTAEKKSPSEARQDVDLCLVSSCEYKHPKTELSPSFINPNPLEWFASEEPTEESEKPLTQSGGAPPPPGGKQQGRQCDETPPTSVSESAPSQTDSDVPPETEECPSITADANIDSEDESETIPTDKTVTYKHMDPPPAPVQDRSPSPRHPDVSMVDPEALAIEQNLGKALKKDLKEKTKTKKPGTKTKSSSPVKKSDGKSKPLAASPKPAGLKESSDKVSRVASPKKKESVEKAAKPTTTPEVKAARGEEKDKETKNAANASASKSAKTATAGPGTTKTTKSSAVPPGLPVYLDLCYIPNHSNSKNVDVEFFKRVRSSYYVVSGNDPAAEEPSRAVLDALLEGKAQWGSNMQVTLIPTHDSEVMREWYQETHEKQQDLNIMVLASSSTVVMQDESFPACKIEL

[2] = biological target: T2, FLAG-tagged NORE1A effector domain (amino acids 191–363) (UniProt Q8WWW0); experiment: as above
T2 sequence: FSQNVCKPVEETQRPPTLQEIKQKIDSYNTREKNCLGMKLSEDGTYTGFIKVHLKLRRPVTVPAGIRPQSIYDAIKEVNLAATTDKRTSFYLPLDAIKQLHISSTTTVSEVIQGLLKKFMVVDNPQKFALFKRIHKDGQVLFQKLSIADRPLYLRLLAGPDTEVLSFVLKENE

With “Microtubule-Associated Protein 1B (MAP1B), endogenous (from UniProt P46821 1-2468)” the binding [1] was “binds” and the binding [2] was “binds”.

— article PMC2518271
